The other results are listed elsewhere or left out.
Assays:
Experiment in all cases: glycan array binding signal (z-score within array); higher = stronger binding
Details in all cases: glycan notation: IUPAC condensed, linker removed
[1] = target: GlcNAc(b1-3)Gal(b1-4)GlcNAc(b1-3)Gal(b1-4)GlcNAc(b1-3)Gal(b1-4)GlcNAc(b1-3)Gal(b1-4)GlcNAc(b1-2)[GlcNAc(b1-3)Gal(b1-4)GlcNAc(b1-3)Gal(b1-4)GlcNAc(b1-3)Gal(b1-4)GlcNAc(b1-3)Gal(b1-4)GlcNAc(b1-6)]Man(a1-6)[GlcNAc(b1-3)Gal(b1-4)GlcNAc(b1-3)Gal(b1-4)GlcNAc(b1-3)Gal(b1-4)GlcNAc(b1-3)Gal(b1-4)GlcNAc(b1-2)Man(a1-3)]Man(b1-4)GlcNAc(b1-4)[Fuc(a1-6)]GlcNAc
Outline: (§1)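 Glycan array data were curated from 3228 arrays in the Consortium for Functional Glycomics database and kept only where the protein sequence was available. Glycan names were converted to IUPAC-condensed notation, and columns mapping to the same glycan were averaged. The binding signal is a within-array Z-score, averaged across arrays of the same protein sequence at different concentrations or buffers and across linkers. Negative Z-scores can be read as non-binding.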

[2] = target: GlcNAc(b1-3)Gal(b1-4)GlcNAc(b1-3)Gal(b1-4)GlcNAc(b1-3)GalNAc
Outline: as §1

[3] = target: GlcNAc(b1-3)Gal(b1-4)GlcNAc(b1-3)GalNAc
Outline: as §1

[4] = target: GlcNAc(b1-3)Gal(b1-4)GlcNAc(b1-3)[GlcNAc(b1-3)Gal(b1-4)GlcNAc(b1-3)]GalNAc
Outline: as §1

[5] = target: GlcNAc(b1-3)Gal(b1-4)GlcNAc(b1-6)[Gal(b1-3)]GalNAc
Outline: as §1

[6] = target: GlcNAc(b1-3)Gal(b1-4)GlcNAc(b1-6)[GlcNAc(b1-3)Gal(b1-3)]GalNAc
Outline: as §1

[7] = target: GlcNAc(b1-3)Gal(b1-4)GlcNAc(b1-6)[GlcNAc(b1-3)]Gal(b1-4)GlcNAc
Outline: as §1

GlcNAc(b1-3)GalNAc = target: GlcNAc(b1-3)GalNAc
Outline: as §1

GlcNAc(b1-3)Man = target: GlcNAc(b1-3)Man
Outline: as §1

[8] = target: GlcNAc(b1-3)[GlcNAc(b1-4)][GlcNAc(b1-6)]GlcNAc
Outline: as §1

[9] = target: GlcNAc(b1-3)[GlcNAc(b1-6)]Gal(b1-4)GlcNAc
Outline: as §1

[10] = target: GlcNAc(b1-3)[GlcNAc(b1-6)]GalNAc
Outline: as §1

[11] = target: GlcNAc(b1-4)Gal(b1-4)GlcNAc
Outline: as §1

GlcNAc(b1-4)GlcNAc = target: GlcNAc(b1-4)GlcNAc
Outline: as §1

[12] = target: GlcNAc(b1-4)GlcNAc(b1-4)GlcNAc
Outline: as §1

[13] = target: GlcNAc(b1-4)GlcNAc(b1-4)GlcNAc(b1-4)GlcNAc(b1-4)GlcNAc
Outline: as §1

[14] = target: GlcNAc(b1-4)GlcNAc(b1-4)GlcNAc(b1-4)GlcNAc(b1-4)GlcNAc(b1-4)GlcNAc
Outline: as §1

[15] = target: GlcNAc(b1-4)[GlcNAc(b1-6)]GalNAc
Outline: as §1

[16] = target: GlcNAc(b1-6)Gal(b1-4)GlcNAc
Outline: as §1

GlcNAc(b1-6)GalNAc = target: GlcNAc(b1-6)GalNAc
Outline: as §1

[17] = target: GlcNAc6S(b1-3)Gal(b1-4)GlcNAc
Outline: as §1

Kdn(a2-3)Gal(b1-3)GalNAc = target: Kdn(a2-3)Gal(b1-3)GalNAc
Outline: as §1

Kdn(a2-3)Gal(b1-3)GlcNAc = target: Kdn(a2-3)Gal(b1-3)GlcNAc
Outline: as §1

Kdn(a2-3)Gal(b1-4)Glc = target: Kdn(a2-3)Gal(b1-4)Glc
Outline: as §1

Kdn(a2-3)Gal(b1-4)GlcNAc = target: Kdn(a2-3)Gal(b1-4)GlcNAc
Outline: as §1

[18] = target: Kdn(a2-3)Gal(b1-4)[Fuc(a1-3)]GlcNAc
Outline: as §1

Kdn(a2-6)Gal(b1-4)GlcNAc = target: Kdn(a2-6)Gal(b1-4)GlcNAc
Outline: as §1

[19] = target: Man(a1-2)Man(a1-2)Man(a1-3)Man
Outline: as §1

[20] = target: Man(a1-2)Man(a1-2)Man(a1-6)[Man(a1-3)]Man
Outline: as §1

Man(a1-2)Man(a1-3)Man = target: Man(a1-2)Man(a1-3)Man
Outline: as §1

[21] = target: Man(a1-2)Man(a1-3)[Man(a1-2)Man(a1-6)]Man
Outline: as §1

[22] = target: Man(a1-2)Man(a1-3)[Man(a1-2)Man(a1-6)]Man(a1-6)[Man(a1-2)Man(a1-2)Man(a1-3)]Man
Outline: as §1

[23] = target: Man(a1-2)Man(a1-3)[Man(a1-2)Man(a1-6)]Man(a1-6)[Man(a1-2)Man(a1-2)Man(a1-3)]Man(b1-4)GlcNAc(b1-4)GlcNAc
Outline: as §1

[24] = target: Man(a1-2)Man(a1-3)[Man(a1-6)]Man(a1-6)[Man(a1-2)Man(a1-3)]Man(b1-4)GlcNAc(b1-4)GlcNAc
Outline: as §1

[25] = target: Man(a1-2)Man(a1-6)[Man(a1-3)]Man(a1-6)[Man(a1-2)Man(a1-2)Man(a1-3)]Man
Outline: as §1

[26] = target: Man(a1-2)Man(a1-6)[Man(a1-3)]Man(a1-6)[Man(a1-2)Man(a1-2)Man(a1-3)]Man(b1-4)GlcNAc(b1-4)GlcNAc
Outline: as §1

Man(a1-3)[Man(a1-6)]Man = target: Man(a1-3)[Man(a1-6)]Man
Outline: as §1

[27] = target: Man(a1-3)[Man(a1-6)]Man(a1-6)[Man(a1-2)Man(a1-3)]Man(b1-4)GlcNAc(b1-4)GlcNAc
Outline: as §1

[28] = target: Man(a1-3)[Man(a1-6)]Man(a1-6)[Man(a1-3)]Man
Outline: as §1

[29] = target: Man(a1-3)[Man(a1-6)]Man(a1-6)[Man(a1-3)]Man(b1-4)GlcNAc(b1-4)GlcNAc
Outline: as §1

[30] = target: Man(a1-3)[Man(a1-6)]Man(b1-4)GlcNAc(b1-4)GlcNAc
Outline: as §1

[31] = target: Man(a1-3)[Man(a1-6)]Man(b1-4)GlcNAc(b1-4)[Fuc(a1-6)]GlcNAc
Outline: as §1

Man(a1-6)Man = target: Man(a1-6)Man
Outline: as §1

Man(b1-4)GlcNAc = target: Man(b1-4)GlcNAc
Outline: as §1

MurNAc(b1-4)GlcNAc = target: MurNAc(b1-4)GlcNAc
Outline: as §1

B1: AT5G17240(42) (Arabidopsis thaliana), Q6NQJ8 (protein)
chain: MDLEHQTMETFLRWAAEIGISDSIDSSRFRDSCLGHSLSVSDFPDAGGRGLGAARELKKGELVLKVPRKALMTTESIIAKDLKLSDAVNLHNSLSSTQILSVCLLYEMSKEKKSFWYPYLFHIPRDYDLLATFGNFEKQALQVEDAVWATEKATAKCQSEWKEAGSLMKELELKPKFRSFQAWLWASATISSRTLHVPWDSAGCLCPVGDLFNYDAPGDYSNTPQGPESANNVEEAGLVVETHSERLTDGGFEEDVNAYCLYARRNYQLGEQVLLCYGTYTNLELLEHYGFMLEENSNDKVFIPLETSLFSLASSWPKDSLYIHQDGKLSFALISTLRLWLIPQSQRDKSVMRLVYAGSQISVKNEILVMKWMSEKCGSVLRDLPTSVTEDTVLLHNIDKLQDPELRLEQKETEAFGSEVRAFLDANCLWDVTVLSGKPIEFSRKTSRMLSKWRWSVQWRLSYKRTLADCISYCNEKMNNLLGTQDRLRDL
How did the “glycan array binding signal (z-score)” value [1] turn out when B1 was run?
The value was 1.33.

And the “glycan array binding signal (z-score)” value [2]?
The value was -0.468.

And the “glycan array binding signal (z-score)” value [3]?
Its value is -0.44.

And the “glycan array binding signal (z-score)” value [4]?
Its value is -0.215.

And the “glycan array binding signal (z-score)” value [5]?
The value was -0.992.

What about the “glycan array binding signal (z-score)” value [6] of the same binder?
Its value is -0.048.

What about the “glycan array binding signal (z-score)” value [7] of the same binder?
The value was 0.17.

What about the “glycan array binding signal (z-score)” value (GlcNAc(b1-3)GalNAc) of the same binder?
The value was 0.283.

And the “glycan array binding signal (z-score)” value (GlcNAc(b1-3)Man)?
Its value is -0.137.

What about the “glycan array binding signal (z-score)” value [8] of the same binder?
The value was -0.488.

What about the “glycan array binding signal (z-score)” value [9] of the same binder?
The value was 0.895.

And the “glycan array binding signal (z-score)” value [10]?
Its value is -0.006.

What about the “glycan array binding signal (z-score)” value [11] of the same binder?
Its value is -0.713.

What about the “glycan array binding signal (z-score)” value (GlcNAc(b1-4)GlcNAc) of the same binder?
Its value is 0.279.

And the “glycan array binding signal (z-score)” value [12]?
The value was -0.495.

And the “glycan array binding signal (z-score)” value [13]?
The value was -0.309.

And the “glycan array binding signal (z-score)” value [14]?
The value was 0.194.

And the “glycan array binding signal (z-score)” value [15]?
Its value is 0.61.

And the “glycan array binding signal (z-score)” value [16]?
Its value is 1.88.

And the “glycan array binding signal (z-score)” value (GlcNAc(b1-6)GalNAc)?
The value was -0.686.

What about the “glycan array binding signal (z-score)” value [17] of the same binder?
The value was -0.23.

And the “glycan array binding signal (z-score)” value (Kdn(a2-3)Gal(b1-3)GalNAc)?
The value was -0.096.

What about the “glycan array binding signal (z-score)” value (Kdn(a2-3)Gal(b1-3)GlcNAc) of the same binder?
Its value is -0.107.

And the “glycan array binding signal (z-score)” value (Kdn(a2-3)Gal(b1-4)Glc)?
Its value is -0.131.

What about the “glycan array binding signal (z-score)” value (Kdn(a2-3)Gal(b1-4)GlcNAc) of the same binder?
Its value is 0.637.

What about the “glycan array binding signal (z-score)” value [18] of the same binder?
Its value is -0.336.

What about the “glycan array binding signal (z-score)” value (Kdn(a2-6)Gal(b1-4)GlcNAc) of the same binder?
The value was -0.164.

And the “glycan array binding signal (z-score)” value [19]?
The value was -0.07.

What about the “glycan array binding signal (z-score)” value [20] of the same binder?
The value was -0.6.

What about the “glycan array binding signal (z-score)” value (Man(a1-2)Man(a1-3)Man) of the same binder?
The value was -0.342.

And the “glycan array binding signal (z-score)” value [21]?
The value was 0.048.

And the “glycan array binding signal (z-score)” value [22]?
Its value is 0.216.

And the “glycan array binding signal (z-score)” value [23]?
Its value is -0.081.

What about the “glycan array binding signal (z-score)” value [24] of the same binder?
The value was 0.607.

And the “glycan array binding signal (z-score)” value [25]?
The value was -0.712.

And the “glycan array binding signal (z-score)” value [26]?
Its value is -0.172.

What about the “glycan array binding signal (z-score)” value (Man(a1-3)[Man(a1-6)]Man) of the same binder?
Its value is 0.356.

And the “glycan array binding signal (z-score)” value [27]?
Its value is -0.73.

What about the “glycan array binding signal (z-score)” value [28] of the same binder?
The value was 0.952.

And the “glycan array binding signal (z-score)” value [29]?
The value was -0.935.

And the “glycan array binding signal (z-score)” value [30]?
The value was -0.529.

What about the “glycan array binding signal (z-score)” value [31] of the same binder?
Its value is -0.479.

What about the “glycan array binding signal (z-score)” value (Man(a1-6)Man) of the same binder?
Its value is 0.232.

What about the “glycan array binding signal (z-score)” value (Man(b1-4)GlcNAc) of the same binder?
The value was -0.269.

What about the “glycan array binding signal (z-score)” value (MurNAc(b1-4)GlcNAc) of the same binder?
The value was 0.035.
